According to PMC8752093:
These are yes or no findings as the source states them, for the method shown. For part of these data: Binding seen in cells or lysates may run through a third protein. Some binding calls cover weakened binding; strength is not graded here.

The chains behind the UniProt entries cited, without tags or fusion partners. Where a name states a change or a piece, a line headed by the entry shows the natural chain unless it says otherwise. A line that says so, or that is headed by a name, gives the form on record, which may keep a tag or linker.
UniProt P35222: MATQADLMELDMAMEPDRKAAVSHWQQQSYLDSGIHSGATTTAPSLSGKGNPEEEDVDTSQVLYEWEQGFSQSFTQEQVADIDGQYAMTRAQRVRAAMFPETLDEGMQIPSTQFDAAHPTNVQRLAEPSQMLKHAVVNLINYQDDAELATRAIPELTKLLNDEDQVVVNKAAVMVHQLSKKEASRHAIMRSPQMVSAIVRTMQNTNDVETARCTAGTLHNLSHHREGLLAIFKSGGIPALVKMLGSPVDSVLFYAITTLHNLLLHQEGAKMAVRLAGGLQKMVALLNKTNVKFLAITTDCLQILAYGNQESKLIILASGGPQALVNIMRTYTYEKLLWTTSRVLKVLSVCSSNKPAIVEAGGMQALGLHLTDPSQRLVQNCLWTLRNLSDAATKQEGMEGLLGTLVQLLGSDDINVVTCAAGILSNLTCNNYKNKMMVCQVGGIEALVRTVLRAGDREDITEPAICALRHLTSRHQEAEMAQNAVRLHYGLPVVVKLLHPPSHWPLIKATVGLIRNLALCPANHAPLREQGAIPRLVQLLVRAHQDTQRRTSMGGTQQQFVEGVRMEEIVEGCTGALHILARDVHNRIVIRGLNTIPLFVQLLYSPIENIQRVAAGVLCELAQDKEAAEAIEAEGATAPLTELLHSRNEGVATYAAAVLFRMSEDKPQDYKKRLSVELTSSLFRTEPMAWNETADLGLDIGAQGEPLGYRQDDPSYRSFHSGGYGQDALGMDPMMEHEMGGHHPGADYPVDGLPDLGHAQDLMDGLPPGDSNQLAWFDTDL
mutant β-catenin-Cherry (endogenous ∆Ser45 β-catenin allele tagged C-terminally with V5, GS linker and mCherry2) (P35222, form named): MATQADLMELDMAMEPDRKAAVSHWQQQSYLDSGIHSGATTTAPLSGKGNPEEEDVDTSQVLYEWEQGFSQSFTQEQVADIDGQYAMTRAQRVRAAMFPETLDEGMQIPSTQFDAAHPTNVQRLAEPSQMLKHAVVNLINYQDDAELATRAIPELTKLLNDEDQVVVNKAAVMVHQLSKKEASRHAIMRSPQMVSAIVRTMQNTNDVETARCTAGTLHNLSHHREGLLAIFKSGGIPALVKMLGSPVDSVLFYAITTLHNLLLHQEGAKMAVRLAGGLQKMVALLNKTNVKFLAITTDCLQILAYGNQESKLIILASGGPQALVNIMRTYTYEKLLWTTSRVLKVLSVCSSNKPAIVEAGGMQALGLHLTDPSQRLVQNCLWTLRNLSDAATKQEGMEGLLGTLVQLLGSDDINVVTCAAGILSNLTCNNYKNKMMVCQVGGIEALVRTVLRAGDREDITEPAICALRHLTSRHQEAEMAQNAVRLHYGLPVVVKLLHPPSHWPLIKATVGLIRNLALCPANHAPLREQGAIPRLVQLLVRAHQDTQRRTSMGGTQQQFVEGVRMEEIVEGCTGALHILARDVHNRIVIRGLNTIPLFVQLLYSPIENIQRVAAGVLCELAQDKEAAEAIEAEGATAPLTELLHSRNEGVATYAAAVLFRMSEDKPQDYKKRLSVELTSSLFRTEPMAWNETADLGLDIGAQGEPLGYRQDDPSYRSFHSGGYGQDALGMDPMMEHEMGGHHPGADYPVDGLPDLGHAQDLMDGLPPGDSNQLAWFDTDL
UniProt O15169: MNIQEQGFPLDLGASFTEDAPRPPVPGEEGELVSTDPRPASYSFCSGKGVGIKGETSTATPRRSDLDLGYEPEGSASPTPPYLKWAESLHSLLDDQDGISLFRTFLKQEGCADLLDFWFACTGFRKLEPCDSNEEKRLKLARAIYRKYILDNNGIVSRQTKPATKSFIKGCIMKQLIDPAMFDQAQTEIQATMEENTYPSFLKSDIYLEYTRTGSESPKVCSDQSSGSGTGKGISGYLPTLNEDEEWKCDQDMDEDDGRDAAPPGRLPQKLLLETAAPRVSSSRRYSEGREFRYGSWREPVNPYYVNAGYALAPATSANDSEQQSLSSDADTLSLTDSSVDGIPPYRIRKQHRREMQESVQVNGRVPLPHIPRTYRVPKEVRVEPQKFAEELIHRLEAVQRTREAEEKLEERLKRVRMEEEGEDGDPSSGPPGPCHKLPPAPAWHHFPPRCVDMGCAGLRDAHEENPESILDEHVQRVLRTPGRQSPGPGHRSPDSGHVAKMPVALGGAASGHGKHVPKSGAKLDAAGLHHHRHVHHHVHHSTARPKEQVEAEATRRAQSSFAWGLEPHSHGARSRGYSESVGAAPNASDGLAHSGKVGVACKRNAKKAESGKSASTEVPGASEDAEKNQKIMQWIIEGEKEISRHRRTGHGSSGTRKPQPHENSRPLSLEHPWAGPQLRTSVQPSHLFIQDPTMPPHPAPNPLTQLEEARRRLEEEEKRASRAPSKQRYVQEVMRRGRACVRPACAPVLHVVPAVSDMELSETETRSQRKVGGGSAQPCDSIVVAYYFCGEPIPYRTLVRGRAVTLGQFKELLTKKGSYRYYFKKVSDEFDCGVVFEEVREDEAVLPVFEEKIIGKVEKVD

Legend:
[1] = target: wild-type β-catenin-Clover (endogenous wild-type β-catenin allele tagged C-terminally with FLAG, GS linker and mClover3) (human (endogenous in HCT116)) (UniProt P35222); test: co-IP; Clover- and Cherry-tagged β-catenin precipitated from HCT116 lysate with GFP- or RFP-Trap magnetic beads/agarose, 1 hr at 4°C; β-catenin, Axin1 and GSK3β detected by Western blot
[2] = target: mutant β-catenin-Cherry (endogenous ∆Ser45 β-catenin allele tagged C-terminally with V5, GS linker and mCherry2) (human (endogenous in HCT116)) (UniProt P35222); test: as above
[3] = target: wild-type β-catenin-Clover (endogenous wild-type β-catenin allele tagged C-terminally with FLAG, GS linker and mClover3) (human (endogenous in HCT116)) (UniProt P35222); test: two-colour fluorescence cross-correlation spectroscopy (FCS); live HCT116 clone #37 cells, cytosol and nucleus, 120 s traces in two colour channels, 37°C and 5% CO2

binding [1]	binding [2]	binding [3]	Substance
binds	binds		axis inhibition protein 1 (Axin1) (from UniProt O15169 1-862)
		no binding	mutant β-catenin-Cherry (endogenous ∆Ser45 β-catenin allele tagged C-terminally with V5, GS linker and mCherry2) (from UniProt P35222 1-781)
